# Experimental data taken from US7166695B2 (ConjuChem Biotechnologies Inc., priority 1997, dated 2007).
# Test: general procedure: Fmoc solid-phase peptide synthesis; Fmoc-Rink amide MBHA resin (NovaBiochem); HBTU/HOBt/DIEA
# Conditions: whole synthesis; for final HPLC purity: analytical HPLC; for final HPLC purity / isolated yield: scale of the general procedure 0.250 mmol
substance,measurement,value
argatroban-AEA3-βAla-Gly-OPh-CO-FlYEE-NH2.2 TFA,crude mass,29.7 mg
same,isolated mass,6.7 mg
same,final HPLC purity,>80%
same,isolated yield,10%
Fluorescein-thiourea-AEA3-Gly-OPh-CO-FlYEE-NH2,isolated mass,6.4 mg
same,final HPLC purity,>95%
same,isolated yield,13%
Biotin-Gly-OPh-CO-FlYEE-NH2,isolated mass,29.4 mg
same,final HPLC purity,>95%
same,isolated yield,21%
